Data published in publication doi:10.1101/2020.10.05.325951.
Results are given in words; binding and its absence hold for the method and conditions named. Some binding calls cover weakened binding; strength is not graded here.

Amino acid sequences for entries named in this document (tags omitted). A change or cut given only in a name is not applied to a line headed by its entry.
UniProt Q9EP80: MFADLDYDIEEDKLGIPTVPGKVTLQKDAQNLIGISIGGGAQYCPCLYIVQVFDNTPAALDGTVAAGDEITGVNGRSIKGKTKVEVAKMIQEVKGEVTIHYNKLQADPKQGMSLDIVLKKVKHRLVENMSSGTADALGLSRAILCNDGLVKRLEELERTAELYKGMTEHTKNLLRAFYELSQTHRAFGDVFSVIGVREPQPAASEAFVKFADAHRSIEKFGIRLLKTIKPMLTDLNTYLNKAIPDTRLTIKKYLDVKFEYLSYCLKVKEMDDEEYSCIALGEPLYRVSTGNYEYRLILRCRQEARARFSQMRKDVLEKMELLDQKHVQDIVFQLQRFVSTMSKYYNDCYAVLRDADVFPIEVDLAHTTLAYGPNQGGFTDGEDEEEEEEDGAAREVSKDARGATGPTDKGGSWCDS

What was measured:
Assay in all cases: fluorescence polarisation
[1] = molecular target: PICK1 R185Q, purified full-length (UniProt Q9EP80)
[2] = molecular target: PICK1 R197Q, purified full-length (UniProt Q9EP80)
[3] = molecular target: PICK1 R247H, purified full-length (UniProt Q9EP80)
[4] = molecular target: PICK1 WT (protein interacting with C kinase 1), purified full-length (UniProt Q9EP80)

Measured: binding

RGEVRQFTLRHWLKV [DATC15 peptide (15-residue peptide from the C-terminal region of the human dopamine transporter)]
binds: all assays above
